# From PubChem BioAssay AID504834 (National Center for Advancing Translational Sciences (NCATS), 2011)
# In all, about 320,000 compounds went through this assay and about 22,000 (6.9%) were called active. This list was built around the results that the source calls inconclusive (neither active nor inactive); the mix of calls is not that of the screen. The call rests on the fitted dose curve; in most records, active means well fitted inhibition curve with a large enough effect; inconclusive means small, poorly fitted or top-dose-only effect, or another doubt; inactive means no such curve, though single readings can be large or run the other way. Potencies beside an inconclusive call are fits to weak or partial responses and may not hold up.
# Assay: Primary qHTS for delayed death inhibitors of the malarial parasite plastid, 96 hour incubation
# Settings: P. falciparum luciferase reporter growth; series mostly up to 28.7 µM
# Method in brief: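 Compounds incubated with erythrocytes infected by luciferase-expressing P. falciparum (2% hematocrit, 0.05% parasitemia final) for 96 hours, 37 C in 5% CO2. Growth inhibition scored as decreased luciferase luminescence.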
# On the % scale 0 is the no-effect control and ±100 the full control effect; potency means the concentration at half of the fitted maximal effect.
SMILES,Potency,"activity change, negative = inhibition"
c1ccc(-n2cnnc2SCc2cn3ccsc3n2)cc1,inactive,
O=C(CCCN1C(=O)/C(=C/c2ccccc2Cl)SC1=S)NNC(=O)c1ccccc1Cl,"inconclusive: 10.4 µM [inhibitor, partial curve]",
CCOc1ccccc1Nc1nnc(SCc2nnc(-c3cc(OC)c(OC)c(OC)c3)o2)s1,"inconclusive: 2.62 µM [inhibitor, full curve]",
CC(C)N(C)Cc1nnnn1CC(=O)N(C)Cc1ccc(F)cc1,"inconclusive: 7.38 µM [inhibitor, partial curve, poor fit]",
COc1ccc(/C=C/C(=O)c2ccccc2)cc1Cn1nnc2ccccc21,"inconclusive: 11.7 µM [inhibitor, partial curve]",
CS(=O)(=O)n1nc(OC(=O)c2cc(Br)ccc2Cl)cc1N,,inactive: -33.2% [at 5.75 µM]
O/N=C(\c1ccccn1)C1CC1c1ccccc1 (stereo unspecified),"inconclusive: 14.7 µM [inhibitor, single point]",
Cc1ccc(C)c(NC(=O)C(OC(=O)c2ccc(C)s2)c2ccccc2)c1 (stereo unspecified),active: 2.94 µM,
COc1ccc(-c2cc(=O)oc3cc4occ(C)c4cc23)cc1,active: 0.828 µM,
CC1CCN(S(=O)(=O)c2ccc(C(=O)Nc3sccc3C(N)=O)cc2)CC1,active: 8.28 µM,
Cc1cccc(C(=O)N2CCN(c3ccc([N+](=O)[O-])c(N4CCOCC4)c3)CC2)c1,"inconclusive: 10.4 µM [inhibitor, partial curve, poor fit]",
O=C1CC(Sc2cccs2)C(=O)N1c1ccccc1 (stereo unspecified),inactive,
COc1ccc(CC2(CO)CCN(Cc3cnn(C)c3C)CC2)cc1,"inconclusive: 16.5 µM [inhibitor, single point]",
Cn1c(=O)n(C)c2cc(/C=C3/SC(=O)N(CC(=O)N4CCOCC4)C3=O)ccc21,"inconclusive: 3.29 µM [inhibitor, partial curve, poor fit]",
Cn1nnc2sc3c(c2c1=O)CCCC3,"inconclusive: 0.262 µM [inhibitor, partial curve, poor fit]",
CS(=O)(=O)N(CC(=O)Nc1cccc([N+](=O)[O-])c1)c1cccc(F)c1,inactive,
COc1ccccc1NS(=O)(=O)c1cc(NC(=O)c2sccc2C)ccc1N1CCCC1,"inconclusive: 9.28 µM [inhibitor, single point]",
CN(C)c1ccc(NC(=O)Cn2cc3c(n2)CCCC3)cc1,"inconclusive: 7.38 µM [inhibitor, partial curve]",
CC(O)CSc1nc2c(c(=O)n(C)c(=O)n2C)n1CCCc1ccccc1 (stereo unspecified),"inconclusive: 0.0329 µM [inhibitor, full curve, poor fit]",
CCOc1ccccc1NC(=O)c1ccc2[nH]c(C)c(C)c2c1,"inconclusive: 9.28 µM [inhibitor, partial curve, poor fit]",
COc1ccccc1NC(=O)c1cccc(N2C(=O)C3C4C=CC(C4)C3C2=O)c1 (stereo unspecified),"inconclusive: 2.08 µM [inhibitor, full curve]",
Cc1cc(C)n(C(=O)CCC(=O)Nc2ccc(C)c(C)c2)n1,active: 11.7 µM,
Oc1[nH]c2ccccc2c1N=Nc1c(F)c(F)c(Cl)c(F)c1F,"inconclusive: 11.7 µM [inhibitor, partial curve, poor fit]",
Oc1ccccc1NCC(O)Cn1ccc2ccccc21 (stereo unspecified),inactive,

# Single records, from the list above.
# `Oc1ccccc1NCC(O)Cn1ccc2ccccc21` (stereo unspecified) is listed with Potency: inactive
# `Cc1cc(C)n(C(=O)CCC(=O)Nc2ccc(C)c(C)c2)n1` is listed with Potency: active: 11.7 µM
# `CS(=O)(=O)n1nc(OC(=O)c2cc(Br)ccc2Cl)cc1N` is listed with activity change, negative = inhibition: inactive: -33.2% [at 5.75 µM]
# `c1ccc(-n2cnnc2SCc2cn3ccsc3n2)cc1` is listed with Potency: inactive

# An excerpt from the list above, as a working copy:
SMILES,Potency,"activity change, negative = inhibition"
COc1ccccc1NS(=O)(=O)c1cc(NC(=O)c2sccc2C)ccc1N1CCCC1,"inconclusive: 9.28 µM [inhibitor, single point]",
CN(C)c1ccc(NC(=O)Cn2cc3c(n2)CCCC3)cc1,"inconclusive: 7.38 µM [inhibitor, partial curve]",

# (cont.)

SMILES,Potency,"activity change, negative = inhibition"
COc1cccc(C2c3[nH]c4ccccc4c3C[C@H]3C(=O)N(C4CC4)CC(=O)N23)c1 (stereo partly specified),active: 1.85 µM,
CCc1ccc2c(CN3CC=C(c4ccccc4)CC3)cc(=O)oc2c1,"inconclusive: 13.1 µM [inhibitor, partial curve, poor fit]",
CCN(CCn1cccn1)C(=O)c1cc(COc2ccc(F)cc2Cl)on1,"inconclusive: 11.7 µM [inhibitor, single point]",
CN(C)c1nc(N)nc(Nc2ccccc2C#N)n1,active: 13.1 µM,
CC(=O)Nc1ccc(N/C=C/C(=O)c2ccc(Br)cc2)cc1,inactive,
CC(C)C(=O)Nc1c(-c2ccccc2F)c(=O)c2ccccc2n1C,inactive,
O=C(NC1CCCCC1)C(c1ccccc1)N(C(=O)c1cccs1)c1ccc2c(c1)OCO2 (stereo unspecified),"inconclusive: 1.65 µM [inhibitor, full curve, poor fit]",
O=C(c1ccco1)N1CCN(C2c3ccccc3-c3ccccc32)CC1,"inconclusive: 14.7 µM [inhibitor, single point]",
O=C(NCC(c1cccnc1)N1CCN(c2ccc(F)cc2)CC1)Oc1ccccc1 (stereo unspecified),"inconclusive: 18.5 µM [inhibitor, single point]",
O=S(=O)(c1ccccc1Cl)N1CCCC(c2nc(-c3cccnc3)no2)C1 (stereo unspecified),"inconclusive: 14.7 µM [inhibitor, partial curve, poor fit]",
Cc1ccc2c(Cl)c(C(=O)NC3CC3)sc2c1,inactive,
O=C(c1nn(Cc2ccccc2)c(=O)c2ccccc12)N1CCc2ccccc2C1,inactive,
NC(=O)COC(=O)c1cc(Cl)cc(Cl)c1N,"inconclusive: 0.208 µM [inhibitor, full curve, poor fit]",
CCOC(=O)c1ccccc1NC(=O)c1ccc(NS(C)(=O)=O)cc1,"inconclusive: 18.5 µM [inhibitor, single point]",
COc1ccc(/C=N/NC(=O)c2cccnc2)cc1COc1ccc([N+](=O)[O-])c(C)c1,inactive,
O=C(COC(=O)c1ccc(S(=O)(=O)N2CCCCC2)cc1)Nc1ccccc1,inactive,
O=C/C=C/c1c(-c2ccccc2)cc2oc3ccccc3cc1-2,"inconclusive: 1.85 µM [inhibitor, full curve]",
CC1CCN(S(=O)(=O)c2ccc(NC(=O)CN3C(=O)NC(C)(c4ccccc4)C3=O)cc2)CC1 (stereo unspecified),"inconclusive: 16.5 µM [inhibitor, partial curve, poor fit]",
COc1cccc(NC(=O)CSc2nc3n[nH]c(C)c3c(=N)n2-c2cccc(OC)c2)c1,inactive,
Cc1ccc(S(=O)(=O)NCC(=O)N(CC2CCCO2)C(C(=O)NC2CCCC2)C(C)C)cc1 (stereo unspecified),"inconclusive: 20.8 µM [inhibitor, partial curve, poor fit]",
O=C(CCSc1ccc(Cl)cc1)NC1CCCC1,active: 5.86 µM,
Cc1ccc2nc(SCC(=O)Nc3ccc(C(N)=O)cc3)[nH]c2c1,"inconclusive: 0.104 µM [inhibitor, full curve, poor fit]",
CCCCCC(O)(CCN1CCCCC1)c1ccc(OCC)cc1 (stereo unspecified),"inconclusive: 2.62 µM [inhibitor, partial curve, poor fit]",
Cc1cc(C)nc(SCC(=O)N/N=C/c2cccc([N+](=O)[O-])c2)n1,"inconclusive: 13.1 µM [inhibitor, single point]",

SMILES,Potency,"activity change, negative = inhibition"
CCOC(=O)c1nc(C)sc1-c1ccnn1S(=O)(=O)c1cccc(Cl)c1,inactive,
COc1ccc(C(C(=O)NC2CCCC2)N(C(=O)c2snc(-c3ccc(F)cc3)c2N)c2ccc(OC)cc2)cc1 (stereo unspecified),active: 5.22 µM,
CN(c1ccccc1)S(=O)(=O)c1ccc(C(=O)OCC(=O)NCc2ccco2)cc1,inactive,
CCN(CC)CCOC(=O)/C=C/c1ccccc1,inactive,
COc1cc(CN2CCN(CCc3ccccc3)C(CCO)C2)cc(OC)c1 (stereo unspecified),"inconclusive: 18.5 µM [inhibitor, single point]",
COc1cc(OC)cc(C(=O)OCC(=O)NC(c2ccccc2)c2ccccc2)c1,inactive,
CCN(CC)C(=O)COc1coc(CN2CCN(c3ccccc3F)CC2)cc1=O,active: 9.28 µM,
O=C(c1ccco1)N1CCN(c2ccc([N+](=O)[O-])c(N3CCOCC3)c2)CC1,"inconclusive: 9.28 µM [inhibitor, single point]",
CCC(C(=O)NCC1CCCO1)n1nc(C)c2sc3ccccc3c2c1=O (stereo unspecified),"inconclusive: 18.5 µM [inhibitor, single point]",
COc1ccc(C2=NOC(C(=O)NCc3cccnc3)C2)cc1 (stereo unspecified),"inconclusive: 10.4 µM [inhibitor, partial curve, poor fit]",
C=CCn1c(C)cc(C(=O)CSc2nc3ccccc3o2)c1C,"inconclusive: 16.5 µM [inhibitor, single point]",
CCCCn1c(=N)n(CC(=O)c2ccc(OC)cc2)c2ccccc21,"inconclusive: 18.5 µM [inhibitor, single point]",
CSC(=NC#N)N1CCN(c2ccc([N+](=O)[O-])cc2)CC1,inactive,
CC(Cl)C(=O)Nc1cc(C(F)(F)F)ccc1N1CCOCC1 (stereo unspecified),"inconclusive: 2.62 µM [inhibitor, full curve]",
O=S(=O)(c1ccccc1)c1nc(Nc2cccc(O)c2)sc1Cl,inactive,
CCCC(C)NC(=O)CSc1nnc2ccccn12 (stereo unspecified),inactive,
CN(c1ccccc1)S(=O)(=O)c1cccc(NC(=O)CN2CCc3ccccc3C2)c1,active: 10.4 µM,
Cc1cccc(N2CCN(C(=O)n3ccnc3)CC2)c1C,active: 11.7 µM,
O=C(Nc1cccn(Cc2ccccc2Cl)c1=O)NC1CCCCC1,inactive,
CC(=O)N1CCCc2cc(S(=O)(=O)N3CCN(c4ccccn4)CC3)ccc21,"inconclusive: 1.65 µM [inhibitor, full curve, poor fit]",
COC(=O)c1c(NC(=O)CSc2ccccc2N)sc(C)c1C,"inconclusive: 4.15 µM [inhibitor, single point]",
CC(C)(C)c1ccccc1NC(=O)c1ccc2c(c1)SC1=NS(=O)(=O)CCN12,"inconclusive: 11.7 µM [inhibitor, partial curve, poor fit]",
COc1cccc(NC(=O)C2CSC3(C)CCC(=O)N23)c1 (stereo unspecified),"inconclusive: 0.0657 µM [inhibitor, full curve, poor fit]",
